Reference: paper PMC7614228, “Structural maturation of SYCP1-mediated meiotic chromosome synapsis by SYCE3” (Nature structural & molecular biology, 2023)
Results are given in words; binding and its absence hold for the method and conditions named. Binding seen in cells or lysates may run through a third protein. Binding can be weak; no strength is given. Where a sequence is shown, tags or fusion partners need not be part of it.

Columns and labels:
[1] = biological target: MBP-SIX6OS1N with SYCE1core (SYCE1-SIX6OS1 complex) (human); experiment: pull-down; amylose pull-down after co-expression of MBP fusions (SYCE1, SYCE1-SIX6OS1, SYCE2-TEX12 core constructs) with His- or GST-SYCE3; lysis in 500 mM KCl, wash in 150 mM KCl, 4°C
[2] = biological target: SYCE2-TEX12 core, MBP fusion (human); experiment: as above

B1: His-SYCE3 (full-length, amino-acids 1-88) (natural protein, human, UniProt A1L190 1-88, looked up)
chain: MDDADPEERNYDNMLKMLSDLNKDLEKLLEEMEKISVQATWMAYDMVVMRTNPTLAESMRRLEDAFVNCKEEMEKNWQELLHETKQRL
notes: SYCE3, full-length = amino-acids 1-88; source: E. coli BL21(DE3), co-expressed with MBP fusions; in lysate (amylose pull-down) or co-purified; not shown: His, N-terminal, kept
In the case of B1, the binding [1] is reported as “binds” and the binding [2] is reported as “binds”.
